The target of the assay is T1, MORF-tagged wild-type Trm734 (S. cerevisiae) (UniProt Q08924).
T1 sequence: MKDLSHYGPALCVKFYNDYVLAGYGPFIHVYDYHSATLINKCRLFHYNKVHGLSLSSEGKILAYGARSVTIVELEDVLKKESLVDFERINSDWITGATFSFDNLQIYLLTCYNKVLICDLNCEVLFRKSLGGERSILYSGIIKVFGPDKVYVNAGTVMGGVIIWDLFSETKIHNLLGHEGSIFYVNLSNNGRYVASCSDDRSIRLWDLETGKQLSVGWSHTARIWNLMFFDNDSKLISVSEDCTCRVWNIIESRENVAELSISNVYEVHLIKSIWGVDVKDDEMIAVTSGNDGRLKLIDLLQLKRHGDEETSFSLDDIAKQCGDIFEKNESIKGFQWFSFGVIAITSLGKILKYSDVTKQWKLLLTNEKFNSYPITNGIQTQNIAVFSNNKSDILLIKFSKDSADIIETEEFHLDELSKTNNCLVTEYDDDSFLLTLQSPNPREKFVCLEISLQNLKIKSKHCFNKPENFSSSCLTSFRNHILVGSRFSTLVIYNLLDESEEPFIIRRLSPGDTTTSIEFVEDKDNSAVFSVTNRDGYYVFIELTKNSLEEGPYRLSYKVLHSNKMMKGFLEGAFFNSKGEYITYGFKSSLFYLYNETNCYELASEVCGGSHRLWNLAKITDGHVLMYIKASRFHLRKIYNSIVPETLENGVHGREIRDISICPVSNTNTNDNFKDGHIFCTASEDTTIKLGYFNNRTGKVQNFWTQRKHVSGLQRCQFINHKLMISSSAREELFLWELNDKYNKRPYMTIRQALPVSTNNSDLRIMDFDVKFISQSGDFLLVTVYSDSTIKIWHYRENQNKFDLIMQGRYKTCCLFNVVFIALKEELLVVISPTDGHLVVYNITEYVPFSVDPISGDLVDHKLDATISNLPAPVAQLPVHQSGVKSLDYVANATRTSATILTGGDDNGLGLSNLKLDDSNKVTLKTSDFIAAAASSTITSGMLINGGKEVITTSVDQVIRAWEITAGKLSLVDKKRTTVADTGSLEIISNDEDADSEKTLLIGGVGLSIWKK
Nature of the assay: co-IP; MORF-tagged Trm734 variants coexpressed with Trm7-9myc in yeast; MORF-tagged proteins purified from crude extracts with IgG-Sepharose beads (bind the ZZ domain), eluted in SDS sample buffer; immunoblot with anti-protein A and anti-c-myc. A general note: A western blot detects proteins with antibodies after separation by electrophoresis.

In publication PMC11170731 one finds binding data, which are given here for one molecule.

Results are given in words; binding and its absence hold for the method and conditions named. Binding seen in cells or lysates may run through a third protein. Some entries that bind do so weakly or less than the wild type. Tags and fused reporters may be left off the sequences shown.

B1: Trm7-9myc (enzyme, UniProt P38238 1-310)
chain: MGKSSKDKRDLYYRKAKEQGYRARSAFKLLQLNDQFHFLDDPNLKRVVDLCAAPGSWSQVLSRKLFDESPSSDKEDRKIVSVDLQPMSPIPHVTTLQADITHPKTLARILKLFGNEKADFVCSDGAPDVTGLHDLDEYVQQQLIMSALQLTACILKKGGTFVAKIFRGRDIDMLYSQLGYLFDKIVCAKPRSSRGTSLEAFIVCLGYNPPSNWTPKLDVNTSVDEFFQGCFLNKLCISDKLSHWNEEERNIAEFMACGSLQSFDSDATYHDLPSSVAGTSSSLDPVQSPTNPPYKKALELKRSGKLTRSV
Regarding B1, the binding entry is “binds”.
